Assay results: patent publication US4473555 (dated 1984)

Assay: general procedure: Boc solid-phase peptide synthesis; Boc-Gly-O-Resin from chloromethylpolystyrene-1%-divinylbenzene resin (1 mmol Cl/g resin)
Details: whole synthesis, scale 1.0 mmol

For Ac-QDPYVKEAG-OH, the crude mass (HF salt) was 0.725 g and the isolated mass (acetic acid salt) was 260 mg.
